The values that follow come from publication PMC6353211.

Amino acid sequences for entries named in this document (tags omitted).
UniProt Q04206, whole entry: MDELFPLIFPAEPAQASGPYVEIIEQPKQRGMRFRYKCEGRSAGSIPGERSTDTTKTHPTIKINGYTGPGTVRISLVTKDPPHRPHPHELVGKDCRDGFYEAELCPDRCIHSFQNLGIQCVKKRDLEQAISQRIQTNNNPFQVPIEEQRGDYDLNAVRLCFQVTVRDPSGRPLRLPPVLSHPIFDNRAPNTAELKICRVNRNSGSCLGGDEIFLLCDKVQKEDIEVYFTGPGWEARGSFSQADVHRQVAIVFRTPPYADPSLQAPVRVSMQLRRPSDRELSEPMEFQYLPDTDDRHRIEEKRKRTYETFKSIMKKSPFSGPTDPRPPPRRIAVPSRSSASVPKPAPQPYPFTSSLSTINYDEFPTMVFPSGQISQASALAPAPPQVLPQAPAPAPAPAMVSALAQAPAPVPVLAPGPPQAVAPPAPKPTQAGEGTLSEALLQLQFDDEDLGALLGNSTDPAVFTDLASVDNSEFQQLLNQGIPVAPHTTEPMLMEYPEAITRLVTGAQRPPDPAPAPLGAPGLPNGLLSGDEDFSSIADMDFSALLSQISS

For at least one entry, the source does not settle the construct or the ends of the probe.

This series deals with p65-Halo-FLAG (wild type, JF549-labeled) (UniProt Q04206). The experiment in a line: EMSA. As to conditions: 0.5 uM dsDNA, 0.1, 0.3, 0.6 ug protein in 20 uL, 12.5 mM Mg2+, 25 mM HEPES pH 7.6, 0.1 mM EDTA, 12.5 mM MgCl2, 100 mM KCl, 0.01% NP-40 alternative, 10% …, 4 C 60 min then RT 10 min, 1% agarose, 0.5x TBE, recombinant protein, protein details: Halo, label: 5' Atto647N on sense strand.

With “AGTTGAGGGGACTTTCCCAGGC (double strand) [ds-kB-oligo (p65_kB consensus)]”, the binding result was “binds”.
